Assay results from patent publication US20050164951A1, “Inhibitors for the soluble epoxide hydrolase” (The Regents of the University of California, priority 2003, published 2005).
Some of these results come from one statement about several compounds together.

Tested on: mouse and human sEH
Assay: sEH IC50 assay, comparisons of the text made for both enzymes or without naming the enzyme
Type: biochemical
Settings: relative to 794 or 767
Protocol: Assays were performed in triplicate. […] The curve was generated from at least three separate runs, each in triplicate, to obtain the standard deviation (SD) given in Table 1 thru Table 4.

Row | Compound | drop in activity with an oxygen in the left of the carbonyl group [fold]
1 | CCCCCNC(=O)OCCNC(=O)Nc1cccc(Cl)c1 [Compound 762, 1-(3-chlorophenyl)-3-(2-pentylaminocarbonyloxyethyl)urea] | > 10
2 | CCCCCOC(=O)OCCNC(=O)Nc1cccc(Cl)c1 [Compound 760, 1-(3-chlorophenyl)-3-(2-pentoxycarbonyloxyethyl)urea] | > 10
3 | CCCCCCC(=O)OCCNC(=O)Nc1cccc(Cl)c1 [Compound 761, 1-(3-chlorophenyl)-3-(2-hexylcarbonyloxyethyl)urea] | > 10
